The results in this text go back to article PMC8522147.

Sequences of proteins named here, by UniProt entry; tags and fusion partners are left off.
UniProt P14618: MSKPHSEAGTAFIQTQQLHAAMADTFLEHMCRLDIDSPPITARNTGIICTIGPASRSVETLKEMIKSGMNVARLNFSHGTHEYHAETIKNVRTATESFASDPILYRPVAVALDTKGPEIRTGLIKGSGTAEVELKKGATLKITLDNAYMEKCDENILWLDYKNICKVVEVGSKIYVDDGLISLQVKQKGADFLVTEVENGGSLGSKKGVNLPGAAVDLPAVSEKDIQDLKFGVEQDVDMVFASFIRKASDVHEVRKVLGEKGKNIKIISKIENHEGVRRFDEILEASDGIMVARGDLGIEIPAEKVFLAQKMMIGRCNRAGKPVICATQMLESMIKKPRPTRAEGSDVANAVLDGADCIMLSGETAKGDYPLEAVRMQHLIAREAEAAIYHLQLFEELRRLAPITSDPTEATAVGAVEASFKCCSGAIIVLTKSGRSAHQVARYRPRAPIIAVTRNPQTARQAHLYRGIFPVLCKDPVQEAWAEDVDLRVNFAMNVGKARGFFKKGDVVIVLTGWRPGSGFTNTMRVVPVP

Assay [1] deals with T1, Kinesin family member 2 C (KIF2C) (human (endogenous in MCF7/ADR)) (UniProt Q99661).
T1 sequence: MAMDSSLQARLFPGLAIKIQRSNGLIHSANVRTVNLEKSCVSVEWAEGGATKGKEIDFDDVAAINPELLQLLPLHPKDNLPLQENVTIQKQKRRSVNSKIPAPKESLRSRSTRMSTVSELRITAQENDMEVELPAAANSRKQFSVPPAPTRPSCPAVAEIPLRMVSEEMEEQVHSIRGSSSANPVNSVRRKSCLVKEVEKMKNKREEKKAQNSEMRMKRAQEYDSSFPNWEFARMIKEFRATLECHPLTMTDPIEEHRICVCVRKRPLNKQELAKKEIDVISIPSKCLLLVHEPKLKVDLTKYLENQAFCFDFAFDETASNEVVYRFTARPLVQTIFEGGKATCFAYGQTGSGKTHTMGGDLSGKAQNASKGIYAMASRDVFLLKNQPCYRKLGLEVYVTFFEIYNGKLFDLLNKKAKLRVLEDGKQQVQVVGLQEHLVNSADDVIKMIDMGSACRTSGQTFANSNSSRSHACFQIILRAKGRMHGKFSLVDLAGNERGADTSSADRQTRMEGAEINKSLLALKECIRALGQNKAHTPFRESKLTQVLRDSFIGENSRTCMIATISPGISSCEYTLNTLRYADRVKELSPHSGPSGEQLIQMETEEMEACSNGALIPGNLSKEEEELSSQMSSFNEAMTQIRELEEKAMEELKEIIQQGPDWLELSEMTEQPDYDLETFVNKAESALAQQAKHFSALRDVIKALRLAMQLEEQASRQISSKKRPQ
Kind of assay: co-IP; MCF7/ADR lysates in NETN buffer (20 mM Tris pH 8.0, 100 mM NaCl, 1 mM EDTA, 0.5% NP-40), 1000 ug lysate, Protein G Sepharose, anti-KIF2C or anti-PKM2 antibody; cells transfected with pCMV, siNC, siTBX15, KIF2C or siKIF2C; 1 ug/ml DOX for 48 h.

Assay [2] concerns the target T1, Kinesin family member 2 C (KIF2C) (human (endogenous in MCF7/ADR)). The experiment in a line: co-IP; as a1, MCF7/ADR cells overexpressing TBX15 (pCMV-TBX15), 1 ug/ml DOX for 48 h; precipitated with anti-KIF2C antibody.
For assay [3] the target is unchanged. The assay is described as above. The source holds these as a separate data set.

No constants are given. Whether binding was seen depends on the method and setting. Binding seen in cells or lysates may run through a third protein. Some binding calls cover weakened binding; strength is not graded here.

“Pyruvate kinase M2 (PKM2) (from UniProt P14618 1-531) (enzyme)”: the binding entry in assay [1] was “binds”; in assay [2], “no binding (condition: with TBX15 overexpressed)”; in assay [3], “binds”.
